Laboratory results: PubChem BioAssay AID1347076 (National Center for Advancing Translational Sciences (NCATS), 2019)
Out of some 400,000 compounds screened, about 13,000 (3.2%) were called active. The inconclusive results got no clear call from the source; some entries with a clear call stand among them for comparison. Calls come from the whole dose curve; as a rule, active = well fitted cell-killing curve with a large enough effect; inconclusive = small, poorly fitted or top-dose-only effect, or effect the other way; inactive = flat fitted curve, though single readings scatter. Potencies beside an inconclusive call are fits to weak or partial responses and may not hold up.

Experiment: qHTS assay for MDR1-selective chemotherapeutics: Primary screen using the drug-selected MDR subline cells KB-V1; note: nearly all actives have a fitted effect of over 60% in size
Conditions: KB-V1 MDR cells viability, CellTiter-Glo, 72 h; series mostly up to 46.1 µM
Method in brief: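 KB-V1, DMEM (no phenol red) + 10% FBS; cpd pin-transferred, titration series; 72 h, 37 degrees C; CellTiter-Glo, luminescence. Data normalized, curve-fit.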
Potency is the fitted concentration of half-maximal effect.

Compound	Potency
COc1ccc(C(CNC(=O)c2cccc(S(=O)(=O)N3CCc4ccccc43)c2)N(C)C)cc1 (stereo not drawn)	inactive
CCN(CC)c1ccc(C(=O)NNC(=O)c2cccn2C)cc1	inconclusive: 32.6 µM [cytotoxic, single point]
O=C(CCCC1=NS(=O)(=O)c2ccccc2N1)Nc1ccccc1	inconclusive: 20.6 µM [rising, partial curve]
COc1ccc(Cl)cc1C(=O)NNC(=O)COC(=O)CCN=C1NS(=O)(=O)c2ccccc21	inconclusive: 29.1 µM [rising, single point]
CSC1=C(C#N)C(c2ccccc2Cl)C(C(=O)c2cccs2)C(O)(C(F)(F)F)N1 (stereo not drawn)	inconclusive: 29.1 µM [cytotoxic, single point]
CN1CCN(C(=O)c2ccc(Oc3ccc([N+](=O)[O-])cc3)cc2)CC1	inconclusive: 20.6 µM [cytotoxic, partial curve, poor fit]
Cc1ccc(-c2cc(=O)c3cc(F)ccc3[nH]2)cc1	inconclusive: 29.1 µM [cytotoxic, single point]
O=S(=O)(NC1CC2CCC1C2)c1ccc(Br)cc1 (stereo not drawn)	inactive
Cc1ccc(NC(=O)c2cccc3cccnc23)cc1	inconclusive: 18.4 µM [cytotoxic, single point]
CCNC(=S)Nc1ccc(Cl)c(C(F)(F)F)c1	active: 23.1 µM
CCCCOc1ccc(C(=O)NCC(=O)N2CC(C)CC(C)C2)cc1 (stereo not drawn)	inconclusive: 29.1 µM [cytotoxic, single point]
S=C(Nc1ccc(Oc2ccc(NC(=S)NC3CCCCC3)cc2)cc1)NC1CCCCC1	active: 16.4 µM
O=C(N/N=C/c1cccc(OC2CSC2)c1)c1ccccc1O	inconclusive: 23.1 µM [cytotoxic, partial curve, poor fit]
CC(C)(C)OC(=O)C[C@@H]1C/C=C\C[C@H](CC(=O)NCCO)C(=O)N[C@@H](Cc2ccccc2)COC1=O	inconclusive: 23.1 µM [rising, single point]
CC(CCc1ccccc1)NC(=O)COC(=O)c1cc(NS(=O)(=O)c2ccc(Cl)c([N+](=O)[O-])c2)ccc1O (stereo not drawn)	inconclusive: 8.2 µM [rising, partial curve]
CCc1ccc(OC(C)c2nnc(SCC(=O)Nc3ncccc3C)n2C)cc1 (stereo not drawn)	inconclusive: 23.1 µM [cytotoxic, partial curve, poor fit]
CCCc1ccc2c(N)c(C#N)sc2n1	inconclusive: 29.1 µM [cytotoxic, single point]
Cc1cc(C)nc(SCC(=O)Nc2ncc(Cc3cccc(Cl)c3)s2)n1	active: 4.61 µM

An excerpt of these results, bar-delimited.
Compound | Potency
CC(C)(C)OC(=O)C[C@@H]1C/C=C\C[C@H](CC(=O)NCCO)C(=O)N[C@@H](Cc2ccccc2)COC1=O | inconclusive: 23.1 µM [rising, single point]
CC(CCc1ccccc1)NC(=O)COC(=O)c1cc(NS(=O)(=O)c2ccc(Cl)c([N+](=O)[O-])c2)ccc1O (stereo not drawn) | inconclusive: 8.2 µM [rising, partial curve]
